SMILES strings stand for the structures. Read-outs that look alike come from different tables or passages of the source. Structures were worked out from names or drawings and are uncertain.

Sequences of proteins named here, by UniProt entry; tags and fusion partners are left off.
UniProt Q07820, whole entry: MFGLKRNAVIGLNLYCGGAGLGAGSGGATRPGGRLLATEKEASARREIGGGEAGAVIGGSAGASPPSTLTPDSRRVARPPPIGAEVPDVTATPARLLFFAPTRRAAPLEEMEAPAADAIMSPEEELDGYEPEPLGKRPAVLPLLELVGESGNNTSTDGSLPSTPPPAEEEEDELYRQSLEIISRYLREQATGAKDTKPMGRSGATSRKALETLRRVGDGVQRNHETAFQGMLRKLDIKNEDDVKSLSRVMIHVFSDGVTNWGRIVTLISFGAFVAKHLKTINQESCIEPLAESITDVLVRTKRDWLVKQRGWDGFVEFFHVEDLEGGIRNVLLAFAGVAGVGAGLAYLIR

For one assay, the target named is GST-MCL-1 (Homo sapiens, UniProt Q07820). The assay can be described thus: TR-FRET MCL-1 binding assay (competition with probe F-Bak). As for the experimental part:
Tb-anti-GST antibody was purchased from Invitrogen (Catalog No. PV4216).
For the assay, an acoustic dispenser was used to prepare dilution series from 10 mM test compounds in 100% DMSO and directly transfer 160 nL into low volume 384-well assay plates. 8 μL of a protein/probe/antibody mix was then added to each well resulting in final concentrations listed below: • Test compound: 11 three-fold dilutions beginning at 25 μM
The samples were then mixed on a shaker for 1 minute and incubated for an additional 2 hours at room temperature. For each assay plate, a probe/antibody and protein/antibody/probe mixture were included as a negative and a positive control, respectively. Fluorescence was measured on the Envision (Perkin Elmer) using a 340/35 nm excitation filter and 520/525 (F-Bak) and 495/510 nm (Tb-labeled anti-his antibody) emission filters. Dissociation constants (Ki) were determined using Wang's equation (Wang, 1995, FEBS Lett. 360:111-114). The TR-FRET assay can be performed in the presence of varying concentrations of human serum (HS) or fetal bovine serum (FBS). Compounds were tested both without HS and in the presence of 10% HS.

Assay [1] has as its system AMO-1 human multiple myeloma tumor cell line. The assay can be described thus: AMO-1 cell viability assay (CellTiter-Glo, 24 hours). It is filed as cell-based. The note with it: read-out: AMO-1 Viability IC50 (μM, 10% FBS), 24 hours of compound treatment. An excerpt: (§1) The in vitro efficacy of exemplary MCL-1 inhibitors can be determined in cell-based killing assays using a variety of cell lines and mouse tumor models. For example, their activity on cell viability can be assessed on a panel of cultured tumorigenic and non-tumorigenic cell lines, as well as primary mouse or human cell populations. MCL-1 inhibitory activity of exemplary MCL-1 inhibitors was confirmed in a cell viability assay with AMO-1 and NCI-H929 human multiple myeloma tumor cell lines.
(§2) In one exemplary set of conditions, NCI-H929 or AMO-1 (ATCC, Manassas, VA) were plated 4,000 cells per well in 384-well tissue culture plates (Corning, Corning, NY) in a total volume of 25 μL RPMI tissue culture medium supplemented with 10% fetal bovine serum (Sigma-Aldrich, St. Louis, MO) and treated with a 3-fold serial dilution of the compounds of interest with a Labcyte Echo from a final concentration of 10 µM to 0.0005 μM. Each concentration was tested in duplicate at least 3 independent times. A luminescent signal proportional to the number of viable cells following 24 hours of compound treatment was determined using the CellTiter-Glo® Luminescent Cell Viability Assay according to the manufacturer's recommendations (Promega Corp., Madison, WI). The plates were read in a Perkin Elmer Envision using a Luminescence protocol. […]

Assay [2] relates to NCI-H929 human multiple myeloma tumor cell line. The experiment in a line: NCI-H929 cell viability assay (CellTiter-Glo, 24 hours). The note with it: read-out: H929 Viability IC50 (μM, 10% FBS), 24 hours of compound treatment.
Excerpt: as §1, §2

Take `COCCOCCOC[C@]1(F)CC[C@H](c2nccc(COc3ccc4cc3C[C@H](C(=O)O)Oc3ncnc5sc(-c6ccc(F)cc6)c(c35)-c3c(C)c(Cl)c(c(Cl)c3C)O[C@H](CN3CCN(C)CC3)CO4)n2)CC1`: the inhibition constant (Ki) at GST-MCL-1 (read-out: MCL-1 Binding Ki (nM, 10% HS), in the presence of 10% HS (human serum)) turned out to be 49.1 nM; at GST-MCL-1 (read-out: MCL-1 Binding Ki, without HS), 49.8 nM. For the same molecule, the values for the IC50 in assay [1] and in assay [2] were 0.00399 µM and 0.0028 µM, respectively.

Values taken from US20250313572A1, “MACROCYCLIC MCL-1 INHIBITORS AND METHODS OF USE” (AbbVie Inc., priority 2017, published 2025).
